{
  "source": "patent US8574925B2",
  "about": "“Fluorescence analysis method using fluorescent-activating antibodies” (Hamamatsu Photonics K.K., priority 2002, dated 2013)",
  "key": {"anti-MG-Ins Fab [1]": {"test_system": "anti-MG-Ins Fab", "assay": "Calibration curve: insulin concentration vs MG fluorescence intensity with anti-MG-Ins Fab and malachite green", "assay_type": "binding, guinea pig", "conditions": "1 μM anti-MG-Ins Fab, 0.4 μM MG", "procedure": "A calibration curve, indicating the relationship between the insulin concentration and fluorescence intensity for a fixed amount (1 μM) of the anti-MG-Ins Fab and a fixed amount (0.4 μM) of MG, was prepared as follows. Since the insulin used forms aggregate of a few molecules because of containing zinc, the insulin was dissolved in advance in PB containing SDS at a final concentration of 0.1% to dissociate the aggregate. The insulin solution thus obtained was thereafter run through a gel permeation column (Fast Desaliting Column HR 10/10, made by Pharnacia), equilibrated using PBS. The insulin solution from which SDS was thus removed was used in the following quantification. • (1) The fluorescence spectrophotometer was set to an excitation wavelength of 620 nm and a fluorescence wavelength of 650 nm and the temperature of the cell holder was maintained at a fixed temperature (25° C.). • (2) 2 ml (A=2 ml) of an antibody-dye solution, containing 1 μM (Y=1 μM) of the anti-MG-Ins Fab and 0.4 μM (Z=0.4 μM) of MG, were prepared (with phosphate buffered saline (pH 7.2, PBS) as the solvent) (S101). • (3) The antibody-dye solution thus obtained was placed in a standard fluorescence measurement cell. This cell was set in the fluorescence spectrophotometer. The solution in the cell was stirred for 30 seconds with a micro stirring bar. […]"}, "anti-MG-Ins Fab [2]": {"test_system": "anti-MG-Ins Fab", "assay": "Calibration curve: insulin concentration vs AO fluorescence intensity with anti-MG-Ins Fab and auramine O", "assay_type": "binding, guinea pig", "conditions": "2 μM anti-MG-Ins Fab, 0.4 μM AO", "procedure": "A calibration curve was prepared for insulin concentrations in the range of 0 to 7.7 μM in the same manner as described above in [1-10-1] other than the changes of setting the anti-MG-Ins Fab concentration to 2 μM, using 0.4 μM of auramine O in place of 0.4 μM of malachite green, setting the excitation wavelength to 400 nm, and setting the fluorescence wavelength to 520 nm."}},
  "data": [
    {"substance": "insulin", "values": [
      {"measurement": "detection sensitivity", "setting": "anti-MG-Ins Fab [1]", "value": "approx. 0.1 μM"},
      {"measurement": "low insulin concentration at which quantification is possible", "setting": "anti-MG-Ins Fab [1]", "value": "approximately 0.13 μM"},
      {"measurement": "detection sensitivity", "setting": "anti-MG-Ins Fab [2]", "value": "approx. 0.1 μM"},
      {"measurement": "low insulin concentration at which quantification is possible", "setting": "anti-MG-Ins Fab [2]", "value": "approximately 0.13 μM"}
    ]}
  ]
}
